The experiment concerns B6C3F1 mice, B16 melanoma ip, median survival T/C. In words: NCI In Vivo Anticancer Drug Screen. Data for tumor model B16 Melanoma (intraperitoneal) in B6C3F1 mice. To be noted: T/C endpoint: median survival time, higher T/C = longer survival. In a few lines: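 Values are T/C ratios: the measurement in treated animals divided by that in vehicle-treated controls, using survival or tumor size in mice carrying transplantable tumors.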

The mark [1] stands for this setting: dose: 100.0 mg/kg/injection, schedule: Q01DX009 (ip), vehicle: Klucel (hydroxypropylcellulose) (HPC).
Where [2] appears, read: dose: 400.0 mg/kg/injection, schedule: Q01DX009 (ip), vehicle: Klucel (hydroxypropylcellulose) (HPC).
[3] abbreviates: dose: 40.0 mg/kg/injection, schedule: Q01DX009 (ip), vehicle: saline.
The mark [4] stands for this setting: dose: 25.0 mg/kg/injection, schedule: Q01DX009 (ip), vehicle: saline with Tween-80.
Where [5] appears, read: dose: 200.0 mg/kg/injection, schedule: Q01DX009 (ip), vehicle: Klucel (hydroxypropylcellulose) (HPC).
[6] abbreviates: dose: 0.06 mg/kg/injection, schedule: Q01DX009 (ip), vehicle: DMSO.
[7] abbreviates: dose: 0.5 mg/kg/injection, schedule: Q01DX009 (ip), vehicle: DMSO.

The list does not hold the whole screen: it gathers tests that were run many times, whatever their T/C, doses with no T/C, and many T/C values between a quarter and a half above the control. Other doses and runs of a compound stand elsewhere. T/C gives the treated animals as a percentage of the vehicle group. Some doses have a count of surviving animals in place of a T/C: the source holds a T/C of zero for them, seemingly a mark for toxic or unscored doses. Some survivor counts are full or nearly so, which does not show that the dose was tolerated: the source hardly ever lists a survival T/C far under the control, and the zero likely stands for such cases as well. Counts of survivors are from the toxicity check (mostly the fifth day) where no day follows; animals may have died later. Schedule codes are those of the source, taken here to give the interval after Q, in days (D) or hours (H), and the number of doses after X. Some entries were tested several times; the values are given in rising order. Marks such as (2×) count equal records among those shown. For survival time, the PubChem record calls one and a half times the control and up active, and a quarter to a half above the control has no call in these data; cut-offs in other NCI protocols can differ. Some T/C values are followed by the survivors on the day toxicity was checked, most often the fifth; without a count, all were alive then.

For `c1ccc2c(NCCCCCCNc3c4ccccc4nc4ccccc34)c3ccccc3nc2c1`, the T/C reads like this: (dose: 1.25 mg/kg/injection, schedule: Q01DX009 (ip), vehicle: Klucel (hydroxypropylcellulose) (HPC)) 129 % of control; (dose: 1.58 mg/kg/injection, schedule: Q01DX009 (ip), vehicle: lactic acid) 149 % of control; (dose: 2.37 mg/kg/injection, schedule: Q01DX009 (ip), vehicle: lactic acid) 148 % of control; (dose: 3.56 mg/kg/injection, schedule: Q01DX009 (ip), vehicle: Klucel (hydroxypropylcellulose) (HPC)) 149 % of control; (dose: 3.56 mg/kg/injection, schedule: Q01DX009 (ip), vehicle: lactic acid) 149 % of control; (dose: 5.0 mg/kg/injection, schedule: Q01DX009 (ip), vehicle: water) 125 % of control. Under “dose: 5.33 mg/kg/injection, schedule: Q01DX009 (ip), vehicle: lactic acid”, the T/C was 129 % of control. The survivor count reads like this: (dose: 8.0 mg/kg/injection, schedule: Q01DX009 (ip), vehicle: lactic acid) 7 of 10; (dose: 10.0 mg/kg/injection, schedule: Q01DX009 (ip), vehicle: water) 4 of 10; (dose: 12.0 mg/kg/injection, schedule: Q01DX009 (ip), vehicle: lactic acid) 0 of 10; (dose: 18.0 mg/kg/injection, schedule: Q01DX009 (ip), vehicle: Klucel (hydroxypropylcellulose) (HPC)) 10 of 10; (dose: 18.0 mg/kg/injection, schedule: Q01DX009 (ip), vehicle: lactic acid) 3 of 10.
`O=C(O)C1CCCN1C(=O)OCc1ccccc1` (configuration not stated): the survivor count runs as follows: under setting [1], 10 of 10; under setting [2], 7 of 10.
`Nc1ncnc2c1ncn2C1OC(CO)CC1O` (configuration not stated): for the setting “dose: 150.0 mg/kg/injection, schedule: Q01DX009 (ip), vehicle: Klucel (hydroxypropylcellulose) (HPC)”, the T/C was 132 % of control. Besides, the survivor count (dose: 300.0 mg/kg/injection, schedule: Q01DX009 (ip), vehicle: Klucel (hydroxypropylcellulose) (HPC)) was 10 of 10.
Turning to `CN(C)CCCOc1nc2c(c(=O)n(C)c(=O)n2C)n1C` (tested in a mixture with another compound), under setting [1], the survivor count was 10 of 10.
Take `CC(O)CCC(=O)c1ccoc1` (configuration not stated): the survivor count runs as follows: under setting [3], 0 of 10; (dose: 80.0 mg/kg/injection, schedule: Q01DX009 (ip), vehicle: saline) 0 of 10.
Consider `O=C(O)CCCc1ccc(N(CCCl)CCCl)cc1`, for which the T/C (dose: 6.25 mg/kg/injection, schedule: Q01DX009 (ip), vehicle: saline with Tween-80) is 140 % of control. The survivor count is 0 of 10 and 7 of 10 under setting [4]; 0 of 10 (2×) (dose: 50.0 mg/kg/injection, schedule: Q01DX009 (ip), vehicle: saline with Tween-80).
With `O=c1[nH]cnc2c1nnn2C1OC(CO)C(O)C1O` (configuration not stated), the survivor count reads like this: (dose: 200.0 mg/kg/injection, schedule: Q01DX009 (ip), vehicle: saline) 10 of 10; (dose: 400.0 mg/kg/injection, schedule: Q01DX009 (ip), vehicle: saline) 10 of 10.
Take `O=[N+]([O-])c1ccc2c3c(ccc([N+](=O)[O-])c13)CC2`: the survivor count is listed as 7 of 7 under setting [5] and 7 of 7 under setting [2].
`Cc1cc(Nc2ccc3c(c2)OCO3)c2cc3c(cc2n1)OCO3`: the survivor count is 10 of 10 under setting [1], 2 of 10 under setting [5] and 0 of 10 under setting [2].
Regarding `C[As](C)SCCC(N)C(=O)NC(CCS[As](C)C)C(=O)O` (configuration not stated), the survivor count by setting is: under setting [1], 10 of 10; under setting [5], 10 of 10.
As to `C=C1COC(O)(C2OCOC(C3CC(=O)NC(=O)C3)C2O)C1C` (configuration not stated), for the setting “dose: 16.0 micrograms/kg/injection, schedule: Q01DX009 (ip), vehicle: water”, the T/C was 125 % of control. The survivor count was 9 of 10 (dose: 32.0 micrograms/kg/injection, schedule: Q01DX009 (ip), vehicle: water); 0 of 10 and 9 of 9 (dose: 64.0 micrograms/kg/injection, schedule: Q01DX009 (ip), vehicle: water); 0 of 10 (dose: 128.0 micrograms/kg/injection, schedule: Q01DX009 (ip), vehicle: water).
Take `O=CC(CO)CC(C=O)n1cnc2c(=O)[nH]cnc21` (configuration not stated): the survivor count (dose: 600.0 mg/kg/injection, schedule: Q01DX009 (ip), vehicle: saline) is recorded as 4 of 10.
Take `C=C(C)CNC1=C(C)C(=O)C2=C(C1=O)[C@H](COC(N)=O)[C@]1(OC)[C@@H]3N[C@@H]3CN21`: the T/C by setting is: (dose: 1.0 mg/kg/injection, schedule: Q01DX001 (ip), vehicle: distilled water + Tween-80) 131 % of control; (dose: 2.0 mg/kg/injection, schedule: Q01DX001 (ip), vehicle: distilled water + Tween-80) 146 % of control.
Take `O=C1C=C(Nc2ccc(O)cc2)c2ccccc2C1=O`: the survivor count under setting [3] is 2 of 10.
Turning to `C=C(C)C(=O)OC1CC(C)(O)C2(O)CCC(C)(/C=C3\OC(=O)C(COC(C)=O)=C31)O2` (configuration not stated), the survivor count (dose: 10.0 mg/kg/injection, schedule: Q01DX009 (ip), vehicle: distilled water + Tween-80 + alcohol) is 9 of 10.
`S=C(N/N=C1/CCCC/C1=N/NC(=S)N1CCOCC1)N1CCOCC1`: the survivor count reads like this: (dose: 12.5 mg/kg/injection, schedule: Q01DX009 (ip), vehicle: saline with Tween-80) 8 of 10; under setting [4], 3 of 10.
Regarding `COc1cc(C(=O)c2cc3c(cc2C)OCO3)cc(OC)c1OC`, the T/C runs as follows: (dose: 25.0 mg/kg/injection, schedule: Q01DX009 (ip), vehicle: Klucel (hydroxypropylcellulose) (HPC)) 125 % of control; (dose: 100.0 mg/kg/injection, schedule: Q01DX009 (ip), vehicle: Klucel (hydroxypropylcellulose) (HPC), evaluated on day 40) 125 % of control; (dose: 100.0 mg/kg/injection, schedule: Q01DX009 (ip), vehicle: Klucel (hydroxypropylcellulose) (HPC), evaluated on day 60) 130 % of control. The survivor count under setting [5] is reported as 10 of 10.
`O=C([O][Bi]([c]1ccccc1)[c]1ccccc1)c1ccccc1`: the survivor count (dose: 50.0 mg/kg/injection, schedule: Q01DX009 (ip), vehicle: Klucel (hydroxypropylcellulose) (HPC)) is 5 of 10 and the survivor count under setting [1] was 0 of 10.
For `C/C=C/C=C/c1cc2cc3c(c(O)c2c(=O)[nH]1)C1(CC3)C(O)=c2c(=O)c3c(=O)cc(OC)c(=O)c=3c(=O)c2=C1O` (configuration not stated), the survivor count is 10 of 10 (dose: 0.03 mg/kg/injection, schedule: Q01DX009 (ip), vehicle: DMSO); 10 of 10 under setting [6]; 6 of 10 and 10 of 10 under setting [7]; 0 of 10, 6 of 10, 7 of 10 (dose: 1.0 mg/kg/injection, schedule: Q01DX009 (ip), vehicle: DMSO); 0 of 10 and 1 of 10 (dose: 2.0 mg/kg/injection, schedule: Q01DX009 (ip), vehicle: DMSO); 0 of 10 (dose: 4.0 mg/kg/injection, schedule: Q01DX009 (ip), vehicle: DMSO). The survivor count (dose: 8.0 mg/kg/injection, schedule: Q01DX009 (ip), vehicle: DMSO) is on record as 0 of 10. Moreover, the T/C runs as follows: under setting [6], 106 and 122 % of control; (dose: 0.12 mg/kg/injection, schedule: Q01DX009 (ip), vehicle: DMSO) 90, 110, 117 % of control; (dose: 0.25 mg/kg/injection, schedule: Q01DX009 (ip), vehicle: DMSO) 107 [9 of 10 alive], 119, 135 % of control [6 of 7 alive]; under setting [7], 123 % of control; (dose: 3.0 mg/kg/injection, schedule: Q01DX009 (ip), vehicle: Klucel (hydroxypropylcellulose) (HPC)) 128 % of control; (dose: 6.0 mg/kg/injection, schedule: Q01DX009 (ip), vehicle: Klucel (hydroxypropylcellulose) (HPC)) 133 % of control. Also, the T/C (dose: 12.0 mg/kg/injection, schedule: Q01DX009 (ip), vehicle: Klucel (hydroxypropylcellulose) (HPC)) is 133 % of control.

These data come from PubChem BioAssay AID200 (DTP/NCI, 2004).
